Patent US20250236655A1 (SHILPA PHARMA LIFESCIENCES LIMITED, priority 2024, published 2025)

Assay: general procedure: Fmoc solid-phase peptide synthesis; Wang resin; Fmoc-Gly-resin substitution 0.3 to 0.5 mmol/g

Substance: Liraglutide
- step yield (purification step): 12%
- crude yield (whole synthesis): 80%
- final HPLC purity (whole synthesis, 210 nm): >99%
- crude purity (method not given) (whole synthesis, HPLC, 210 nm): about 55 to 60%
- final HPLC purity (whole synthesis, HPLC, 210 nm): 99.7%
- final purity (method not given) (whole synthesis, HPLC, 210 nm, run 1): 95.95%
- final purity (method not given) (whole synthesis, HPLC, 210 nm, run 2): 95.08%
